Results reported in paper PMC5717064, “Alternative substrate-bound conformation of bacterial solute-binding protein involved in the import of mammalian host glycosaminoglycans” (Scientific Reports, 2017).
Results are given in words; binding and its absence hold for the method and conditions named. In cells and extracts the contact can be indirect. Binding can be weak; no strength is given.

The chains behind the UniProt entries cited, without tags or fusion partners. Where a name states a change or a piece, a line headed by the entry shows the natural chain unless it says otherwise.
UniProt D1AWD9: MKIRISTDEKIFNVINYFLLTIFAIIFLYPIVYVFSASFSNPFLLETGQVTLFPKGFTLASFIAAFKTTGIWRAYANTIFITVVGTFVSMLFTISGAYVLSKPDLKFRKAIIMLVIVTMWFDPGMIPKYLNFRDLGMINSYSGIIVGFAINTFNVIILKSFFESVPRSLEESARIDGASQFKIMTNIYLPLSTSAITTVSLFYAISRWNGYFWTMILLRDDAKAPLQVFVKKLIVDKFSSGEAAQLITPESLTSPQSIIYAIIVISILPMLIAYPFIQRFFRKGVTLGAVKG
UniProt D1AWD8: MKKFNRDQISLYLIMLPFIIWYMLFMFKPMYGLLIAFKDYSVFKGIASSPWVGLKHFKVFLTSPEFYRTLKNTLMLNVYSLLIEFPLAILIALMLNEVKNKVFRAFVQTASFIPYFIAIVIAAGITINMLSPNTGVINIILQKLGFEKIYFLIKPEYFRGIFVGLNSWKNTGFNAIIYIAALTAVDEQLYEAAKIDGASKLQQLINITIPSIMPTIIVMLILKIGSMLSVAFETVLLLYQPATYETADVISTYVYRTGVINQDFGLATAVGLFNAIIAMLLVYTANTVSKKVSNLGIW

Target: Smon0122 with a His-tagged sequence at the C-terminus (Streptobacillus moniliformis) (UniProt D1AWD9)
Assay: co-purification (Ni-NTA metal affinity, gel filtration); transporter purified from detergent-solubilized recombinant E. coli membrane by the C-terminal His tag of Smon0122, then Hi Load 16/60 Superdex 200 pg

| binding | Molecule |
| --- | --- |
| binds | Smon0121 (from UniProt D1AWD8) |
| binds | Smon0120 (protein, UniProt D1AWD7 1-366) MAEVILKKVEKQYPNGFKAVHGIDLEIRDGEFMVFVGPSGCAKSTTLRMIAGLEDITGGEIYIGDKLVNDVPPKDRGIAMVFQNYALYPHMSVYENMAFGLKLKKTPKEEIDRRVKEAAEKLEITELLDRKPKEMSGGQRQRVALGRAIVREPKVFLFDEPLSNLDAKLRVSMRVRITQLHKELKTTMIYVTHDQVEAMTMGDRITVLKLGRIMQVDTPLNLYHRPANKFVAGFIGSPTMNLLEGELVRREERTFIDIEGALIELHPSKAEKVKGYIGKRVIFGIRPENISTTKEESTYTQIGEVSVVEQMGNEEYIYFKLSGKQMTCRMNVDGISETSKQGKELFYFDTSKAHIFDIDTEENISL |
